Results reported in article PMC3210151 (2011).
These are yes or no findings as the source states them, for the method shown.

Amino acid sequences for entries named in this document (tags omitted). A change or cut given only in a name is not applied to a line headed by its entry. Chains listed by the source or under a name are the forms on record and can include a tag or linker.
MSPβ R689C (Phe465-Gly711, C672S, R689C) (P26927, form named): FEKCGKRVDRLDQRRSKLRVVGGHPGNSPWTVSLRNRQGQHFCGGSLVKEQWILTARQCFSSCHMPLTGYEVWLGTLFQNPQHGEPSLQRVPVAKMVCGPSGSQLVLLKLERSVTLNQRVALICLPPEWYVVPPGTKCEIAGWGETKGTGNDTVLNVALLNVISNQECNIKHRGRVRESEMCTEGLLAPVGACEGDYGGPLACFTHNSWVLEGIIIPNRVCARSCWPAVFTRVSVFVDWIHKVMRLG

Columns and labels:
[1] = target: MSPβ R689C (Phe465-Gly711, C672S, R689C) (human, UniProt P26927 465-711, C672S | R689C); experiment: SEC-MALS; size exclusion chromatography and multiangle light scattering of purified MSPβ; both purified
[2] = target: wild type MSPβ (macrophage stimulating protein β-chain with the adjoining 19 residues of the α-chain, Phe465-Gly711, C672S) (human) (UniProt P26927); experiment: as above

Substance	binding [1]	binding [2]
MSPβ R689C (Phe465-Gly711, C672S, R689C) (from UniProt P26927 465-711) (domain or fragment)	no binding	
wild type MSPβ (macrophage stimulating protein β-chain with the adjoining 19 residues of the α-chain, Phe465-Gly711, C672S) (from UniProt P26927 465-711) (domain or fragment)		no binding
